Measured values taken from patent US20240058464A1 (Fortis Therapeutics, Inc., priority 2021, published 2024).
For at least one compound, name, drawing or mass did not settle the structure.

Tested on: CD46 expression
Assay: CD46 expression by RNA-sequencing in unpaired pre-treatment and post-treatment tumor biopsies
Type: in vivo, human
Settings: clear cell renal cell carcinoma, FIG. 8

## CNC(=O)c1ccccc1Sc1ccc2c(/C=C/c3ccccn3)n[nH]c2c1 [axitinib]
  CD46 expression after treatment vs pre-treatment: significantly lower
